According to US10399971B2, “Compound for treating or preventing hyperuricemia or gout” (JIANGSU ATOM BIOSCIENCE AND PHARMACEUTICAL CO., LTD., priority 2015, dated 2019):
Some of these results come from one statement about several compounds together.

Experiments:
[1] = system: human normal liver cell line L-02; test: Cytotoxicity test on human normal liver cell line L-02 (Alamar Blue); type: cell-based; conditions: L-02 cells, 120 h incubation, cell viability; read-out: half inhibitory concentration (IC50) against L-02
Description: (§1) 2.1 The normal liver cell lines L-02 and WRL-68 were cultured with DMEM culture medium (containing 10% of fetal bovine serum, 100 U/mL of penicillin and 0.1 mg/mL of streptomycin) in an incubator under 5% CO2 at 37° C. until the cell density was about 90%, respectively.
(§2) 2.3 Tested compounds and benzbromarone at different concentration gradients were prepared by using the DMEM culture medium and added into wells at 100 μL/well as compounds wells. The DMEM culture medium was added into wells at 100 μL/well without tested compound as negative control wells.
(§3) This 10× Alamar Blue solution was diluted into 1× Alamar Blue solution with phenol red free DMEM culture medium before use.
(§4) 2.5 The cells were washed with PBS (0.1 M, pH=7.4) twice. The Alamar Blue solution was added into wells at 100 μL/well. 100 μL of Alamar Blue solution was added into wells without cells to serve as blank control wells. The 96-well plate was placed in an incubator under 5% CO2 at 37° C. for 3 h. […]
(§5) The fluorescence value of the cells containing compound is the F(test compound); the fluorescence value of the cells without compound as blank control is the F(blank control); the fluorescent value of the cells from negative control group is F(negative control). The average value and standard deviation of cell viability of three repeated concentrations was calculated by the following formula: […]

[2] = system: human normal liver cell line WRL-68; test: Cytotoxicity test on human normal liver cell line WRL-68 (Alamar Blue); type: cell-based; conditions: WRL-68 cells, 120 h incubation, cell viability; read-out: half inhibitory concentration (IC50) against WRL-68
Description: as §1, §2, §3, §4, §5

Row | SMILES | IC50 [1] [µM] | IC50 [2] [µM]
1 | CCc1nc2ccccn2c1C(=O)c1cc(Br)c(O)c(C#N)c1 [Compound 38, 3-bromo-5-(2-ethylimidazo[1,2-a]pyridine-3-carbonyl)-2-hydroxybenzonitrile] | > 100 | > 100
2 | CCc1nc2ccccn2c1C(=O)c1cc(I)c(O)c(C#N)c1 [Compound 39, 5-(2-ethylimidazo[1,2-a]pyridine-3-carbonyl)-2-hydroxy-3-iodobenzonitrile] | > 100 | > 100
